Experimental findings from patent US20210340178A1 (FEDERALNOYE GOSUDARSTVENNOE BUDGETNOE UCHREZHDENIE …, priority 2018, published 2021) are described below.

Non-standard residues stand in square brackets, D forms with d. NMeR = CN[C@@H](CCCNC(=N)N)C(=O)O

The nature of data set [1]: general procedure: Fmoc solid-phase peptide synthesis; Rink-amide resin; TBTU/NMM. The conditions noted are these: whole synthesis, scale 0.38 mmol.
Data set [2] can be described thus: general procedure: Fmoc solid-phase peptide synthesis; Rink-amide resin (Novabiochem), 0.64 mmol/g; TBTU/NMM. The conditions noted are these: whole synthesis.
Where [3] appears, read: 220 nm, scale of the general procedure 0.38 mmol.
[4] abbreviates: analytical HPLC, Nucleosil 100-5 C18, UV 220 nm, scale of the general procedure 0.38 mmol.

For “H-K[dK]RAARATS-NH2 (SMILES C[C@H](NC(=O)[C@H](C)NC(=O)[C@H](CCCNC(=N)N)NC(=O)[C@@H](CCCCN)NC(=O)[C@@H](N)CCCCN)C(=O)N[C@@H](CCCNC(=N)N)C(=O)N[C@@H](C)C(=O)N[C@H](C(=O)N[C@@H](CO)C(N)=O)[C@@H](C)O)”, the crude mass in data set [1] is recorded as 0.76 g. Besides, in data set [2], the isolated mass was determined as 0.23 g. Besides, in data set [2] (setting [3]), the “crude HPLC purity” value was 52% and the “final HPLC purity” value was found to be 97.2%. In addition, the isolated yield in data set [2] (per starting amino acid, scale of the general procedure 0.38 mmol) is 38.8%.
Consider H-KKRAARATS-NH2, for which the “final HPLC purity” value in data set [2] (setting [4]) worked out at 96.1%.
On to “H-[NMeR]KKYKYR[dR]K-NH2 (SMILES CN[C@@H](CCCNC(=N)N)C(=O)N[C@@H](CCCCN)C(=O)N[C@@H](CCCCN)C(=O)N[C@@H](Cc1ccc(O)cc1)C(=O)N[C@@H](CCCCN)C(=O)N[C@@H](Cc1ccc(O)cc1)C(=O)N[C@@H](CCCNC(=N)N)C(=O)N[C@H](CCCNC(=N)N)C(=O)N[C@@H](CCCCN)C(N)=O)”, for which the “final HPLC purity” value in data set [2] (setting [4]) came to 96.8%.
